Results published in article PMC4313936.
Positions count from the first letter of the chain named. Results are given in words; binding and its absence hold for the method and conditions named. Binding seen in cells or lysates may run through a third protein. Some entries that bind do so weakly or less than the wild type. Where a sequence is shown, tags or fusion partners need not be part of it.

Sequences of proteins named here, by UniProt entry; tags and fusion partners are left off.
UniProt Q13158: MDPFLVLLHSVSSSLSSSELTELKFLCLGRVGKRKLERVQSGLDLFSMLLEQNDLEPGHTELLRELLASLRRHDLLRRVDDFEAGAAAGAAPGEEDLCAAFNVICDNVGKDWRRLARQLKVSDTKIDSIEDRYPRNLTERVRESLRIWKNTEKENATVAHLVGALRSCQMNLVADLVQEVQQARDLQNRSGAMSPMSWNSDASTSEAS

Tests used:
GST-TRADD (human) = biological target: T1, GST-TRADD (human) (UniProt Q15628); assay: pull-down; GST-TRADD proteins on beads incubated with ^35S-Met-labeled FADD from reticulocyte lysate, as described in ref. 44; SDS-PAGE and autoradiography; only the target purified
T1 sequence: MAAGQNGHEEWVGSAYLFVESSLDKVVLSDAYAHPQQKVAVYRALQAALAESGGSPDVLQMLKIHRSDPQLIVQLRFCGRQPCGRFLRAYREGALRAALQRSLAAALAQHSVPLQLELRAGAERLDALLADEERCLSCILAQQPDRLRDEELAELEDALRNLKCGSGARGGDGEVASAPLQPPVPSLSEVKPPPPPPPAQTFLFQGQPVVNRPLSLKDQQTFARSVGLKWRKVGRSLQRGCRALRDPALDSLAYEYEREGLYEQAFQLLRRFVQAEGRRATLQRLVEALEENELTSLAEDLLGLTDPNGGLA

GST-TRADD K229A (human) = biological target: T2, GST-TRADD K229A (human) (UniProt Q15628); assay: as above
T2 sequence: T1 sequence with K229A

Flag-TRADD (human) = biological target: T3, Flag-TRADD (human) (UniProt Q15628); assay: co-IP; Hek 293T cells co-transfected with Flag-TRADD and HA-FADD; 500 μg of cell extract on Flag-resin at 4°C; blot with HA-HRP or Flag-HRP
T3 sequence: T1 sequence

Flag-TRADD K229A (human) = biological target: T4, Flag-TRADD K229A (human) (UniProt Q15628); assay: as above
T4 sequence: T1 sequence with K229A

Flag-TRADD R231A (human) = biological target: T5, Flag-TRADD R231A (human) (UniProt Q15628); assay: as above
T5 sequence: T1 sequence with R231A

Flag-TRADD R235A (human) = biological target: T6, Flag-TRADD R235A (human) (UniProt Q15628); assay: as above
T6 sequence: T1 sequence with R235A

binding (GST-TRADD (human))	binding (GST-TRADD K229A (human))	binding (Flag-TRADD (human))	binding (Flag-TRADD K229A (human))	binding (Flag-TRADD R231A (human))	binding (Flag-TRADD R235A (human))	Substance
binds	binds					^35S-Met-labeled FADD protein (from UniProt Q13158 1-208)
		binds	binds	binds	binds	HA-FADD (from UniProt Q13158 1-208)
